Here are results for 44 compounds from PubChem BioAssay AID662 (National Center for Advancing Translational Sciences (NCATS), 2007).

This is one part of the list. Shown are side measurements of this screen, not its main read-out; they come without a call. Compounds called inactive in the main read-out are mostly missing here. Words in brackets tell the shape of the fitted curve; partial curves, single points and poor fits give uncertain potencies.

The test can be described thus: Cell signaling CRE-BLA (Fsk stim). The settings on record: CHO CRE-bla reporter (cAMP response element driving beta-lactamase), forskolin EC10, beta-lactamase ratio; measured here: 460 nm blue channel. Put shortly: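 qHTS titration format; CRE-bla CHO reporter; stimulus EC10 NKH 477, a water-soluble forskolin. Read: CCF4 460/530 nm ratio. Potency expressed as AC50 for activators or inhibitors.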
In general, AC50 refers to the concentration at which the activity in the assay is half-maximal. For `Cc1ccc(OCC(=O)Nc2ccc3c(c2)nc(CCN2CCOCC2)n3C)cc1`, the AC50 was 12.6 µM [rising, single point]. For `COc1ccc(-n2c(=O)c3ccccc3n(CC(=O)NC3CCCCC3)c2=O)c(OC)c1` the value was 0.00794 µM [falling, full curve, poor fit]; for `COc1cccc(-c2nn(C)c3sc(C(=O)NCc4ccc5c(c4)OCO5)cc23)c1`, 1 µM [rising, full curve]; for `O=c1cnc2cnc(Nc3ccccc3)nc2n1Cc1ccc(F)cc1`, 25.1 µM [rising, partial curve]. As to `COc1ccccc1NS(=O)(=O)c1ccc(NC(=O)c2nc3ncccn3n2)cc1`, the AC50 is 25.1 µM [rising, single point]. Take `COc1ccc(CN2CCCC2C(=O)Nc2ccc(OC)c(OC)c2)cc1OC` (centres undefined): the AC50 was 10 µM [rising, partial curve].

Turning to `Cc1ccc(C)c(N2CCN(C(=O)CCNC(=O)Cn3ccc4ccccc4c3=O)CC2)c1`, the AC50 was 0.00316 µM [falling, full curve, poor fit]. With `COc1ccccc1NC(=O)N(Cc1ccco1)Cc1cc2c(C)ccc(C)c2[nH]c1=O`, the AC50 was 12.6 µM [falling, single point]. For `COc1ccc(Cl)cc1NC(=O)c1ccoc1C` the value was 0.00316 µM [falling, full curve, poor fit].

`Cc1cc(C)n2nc(SCc3cc(=O)n4c(C)cccc4n3)nc2n1`: the AC50 is 1.26 µM [rising, full curve]. In the case of `COc1ccc(-c2cc(C(F)(F)F)nc(N3CCOCC3)n2)cc1OC`, the AC50 was 5.01 µM [rising, partial curve]. For the compound `Cc1nc2sc3c(c2c(=O)[nH]1)CCC3`, the AC50 was 12.6 µM [rising, partial curve].

Take `O=C(NC1CCCc2ccccc21)c1cccnc1` (centres undefined): the concentration at half-maximal activity (AC50) was 0.0398 µM [falling, full curve, poor fit]. To `COc1ccc(-c2cc(C(F)(F)F)n3nc(C)cc3n2)cc1` belongs 12.6 µM [rising, partial curve]; to `CCCNC(=O)N1CCN(S(=O)(=O)c2ccc(C)cc2)CC1`, 0.631 µM [falling, full curve, poor fit].

For `COc1ccc(-n2ccnc2SCC(=O)Nc2ccc(OC)cc2OC)cc1`, the AC50 was 10 µM [rising, single point]. As to `O=c1c(-c2cc(F)cc(F)c2)nc2cnc(N3CCOCC3)nc2n1-c1ccccc1`, the AC50 was 1.58 µM [rising, full curve]. Regarding `COc1cc(C(Nc2ccccn2)c2ccc3ccc(C)nc3c2O)cc(OC)c1O` (centres undefined), the AC50 was 10 µM [falling, partial curve]. `Cc1ccc(C(=O)c2cn[nH]c2-c2cc(Cl)ccc2O)cc1`: the AC50 is 5.01 µM [falling, full curve, poor fit]. On to `CCOc1ccc(Cc2nnc(N)s2)cc1OCC`, for which the AC50 was 12.6 µM [rising, partial curve]. For the compound `COC(=O)c1ccccc1NC(=O)c1ccc(F)cc1`, the AC50 is 7.94 µM [rising, partial curve]. For the compound `COc1ccc(N2CCN(C(=O)c3ccc(C)c(Cl)c3)CC2)cc1`, the AC50 is 12.6 µM [rising, partial curve].

Regarding `CN(c1nc2c(c(=O)n(C)c(=O)n2C)n1CC(=O)c1ccccc1)C1CCCCC1`, the AC50 was 10 µM [falling, single point]. With `COC(=O)c1ccccc1NC(=O)C1CCCN(c2nnc(-n3cccc3)s2)C1` (centres undefined), the AC50 is 12.6 µM [rising, partial curve]. On to `O=c1c(-c2ccc(Cl)cc2)nc2cnc(N3CCNCC3)nc2n1CCc1ccccc1`, for which the AC50 is 2.51 µM [rising, full curve].

For the compound `CCOc1ccc(C(=O)N2CCN(c3cccc(C)c3C)CC2)cc1`, the AC50 is 0.0501 µM [rising, partial curve, poor fit]. In the case of `CCCCC(=O)Nc1ncc(Br)s1`, the AC50 was 12.6 µM [falling, single point].

Consider `O=C(O)CCCn1nc(C(F)(F)F)c2c1CCCCC2`, for which the AC50 was 1.26 µM [rising, partial curve]. In the case of `O=c1c(-c2ccccc2)nc2cnc(N3CCOCC3)nc2n1CCc1ccccc1`, the AC50 is 2.51 µM [rising, full curve]. For `Cc1cc(OCC(=O)N2CCOCC2)cc2oc(=O)c3ccccc3c12`, the AC50 is 10 µM [rising, partial curve].

As for `COc1cc(NC(=O)CN(c2ccc(C)cc2)S(=O)(=O)c2c(C)nn(C)c2C)cc(OC)c1`, the AC50 was 25.1 µM [rising, single point]. As to `c1coc(CNc2ncnc3sc4c(c23)CCCCC4)c1`, the AC50 was 15.8 µM [rising, single point]. Consider `Cc1cc(C)nc(NS(=O)(=O)c2ccccc2)n1`, for which the AC50 is 3.16 µM [falling, single point]. Regarding `N#Cc1nc(Cc2cccc3ccccc23)oc1N1CCOCC1`, the AC50 is 10 µM [rising, single point]. Regarding `Cc1ccccc1N=C1NC(=O)CS1`, the AC50 was 0.1 µM [falling, full curve]. `COc1ccc(Cn2cccc(NC(=O)Nc3ccc(C#N)cc3)c2=O)cc1`: the AC50 is 0.251 µM [rising, full curve, poor fit]. Consider `CCNc1ncc2nc(-c3ccc(F)cc3)c(=O)n(CCOC)c2n1`, for which the AC50 was 5.01 µM [rising, partial curve].

Turning to `COc1ccccc1-n1c(SCC(=O)Nc2ccc3c(c2)OCO3)nc2c(c1=O)SCC2`, the AC50 is 25.1 µM [rising, single point].

Consider `Cc1cccc(-n2ncc3c(N)ncnc32)c1`, for which the AC50 is 12.6 µM [rising, single point]. Regarding `CN(C)S(=O)(=O)c1ccc(C(=O)Nc2ccccn2)cc1`, the AC50 is 0.126 µM [falling, full curve]. Consider `CC(C)C(OC(=O)c1ccco1)C(=O)NCc1ccccc1` (centres undefined), for which the concentration at half-maximal activity (AC50) was 0.501 µM [falling, full curve, poor fit].

Consider `CN1CCCc2cc(C#N)c(=O)[nH]c21`, for which the AC50 is 0.794 µM [rising, full curve]. Take `CC1=C(C#N)C(C)C2=C(CC(C)(C)CC2=O)N1` (centres undefined): the AC50 was 20 µM [rising, single point]. Turning to `O=C(CN1CCN(c2ccccn2)CC1)Nc1ccc2ccccc2c1`, the AC50 is 3.98 µM [falling, full curve].
